Experimental data taken from PMC11176388.

B1: PYGL (enzyme, UniProt P06737 1-847)
chain: MAKPLTDQEKRRQISIRGIVGVENVAELKKSFNRHLHFTLVKDRNVATTRDYYFALAHTVRDHLVGRWIRTQQHYYDKCPKRVYYLSLEFYMGRTLQNTMINLGLQNACDEAIYQLGLDIEELEEIEEDAGLGNGGLGRLAACFLDSMATLGLAAYGYGIRYEYGIFNQKIRDGWQVEEADDWLRYGNPWEKSRPEFMLPVHFYGKVEHTNTGTKWIDTQVVLALPYDTPVPGYMNNTVNTMRLWSARAPNDFNLRDFNVGDYIQAVLDRNLAENISRVLYPNDNFFEGKELRLKQEYFVVAATLQDIIRRFKASKFGSTRGAGTVFDAFPDQVAIQLNDTHPALAIPELMRIFVDIEKLPWSKAWELTQKTFAYTNHTVLPEALERWPVDLVEKLLPRHLEIIYEINQKHLDRIVALFPKDVDRLRRMSLIEEEGSKRINMAHLCIVGSHAVNGVAKIHSDIVKTKVFKDFSELEPDKFQNKTNGITPRRWLLLCNPGLAELIAEKIGEDYVKDLSQLTKLHSFLGDDVFLRELAKVKQENKLKFSQFLETEYKVKINPSSMFDVQVKRIHEYKRQLLNCLHVITMYNRIKKDPKKLFVPRTVIIGGKAAPGYHMAKMIIKLITSVADVVNNDPMVGSKLKVIFLENYRVSLAEKVIPATDLSEQISTAGTEASGTGNMKFMLNGALTIGTMDGANVEMAEEAGEENLFIFGMRIDDVAALDKKGYEAKEYYEALPELKLVIDQIDNGFFSPKQPDLFKDIINMLFYHDRFKVFADYEAYVKCQDKVSQLYMNPKAWNTMVLKNIAASGKFSSDRTIKEYAQNIWNVEPSDLKISLSNESNKVNGN
B2: phosphorylated glycogen phosphorylase (pPYGL) (enzyme, UniProt P06737 1-847)
chain: B1 chain
modifications: phosphorylated (site not given)

Target: PP1c (human (endogenous in HCC94 and CaSki))
Experiment: co-IP; endogenous proteins; lysates of cancer stem cells or bulk cells treated with cisplatin for 24 h, or of cancer stem cells transfected with PCK1 siRNA; IgG or IP antibody overnight at 4 °C, Protein A/G beads 2 h at 4 °C, five washes with TBST; western blot

| Binder | binding |
| --- | --- |
| B1 | binds |
| B2 | binds |

Results are given in words; binding and its absence hold for the method and conditions named. In cells and extracts the contact can be indirect. Binding calls can cover weak binding; strength is not graded here.
